Assay results taken from PMC11832932.
These are yes or no findings as the source states them, for the method shown. In cells and extracts the contact can be indirect. Some entries that bind do so weakly or less than the wild type. Tags and fused reporters may be left off the sequences shown. Blank lines part the entries; values can stand above or below the molecule they belong to.

The chains behind the UniProt entries cited, without tags or fusion partners.
UniProt P11142: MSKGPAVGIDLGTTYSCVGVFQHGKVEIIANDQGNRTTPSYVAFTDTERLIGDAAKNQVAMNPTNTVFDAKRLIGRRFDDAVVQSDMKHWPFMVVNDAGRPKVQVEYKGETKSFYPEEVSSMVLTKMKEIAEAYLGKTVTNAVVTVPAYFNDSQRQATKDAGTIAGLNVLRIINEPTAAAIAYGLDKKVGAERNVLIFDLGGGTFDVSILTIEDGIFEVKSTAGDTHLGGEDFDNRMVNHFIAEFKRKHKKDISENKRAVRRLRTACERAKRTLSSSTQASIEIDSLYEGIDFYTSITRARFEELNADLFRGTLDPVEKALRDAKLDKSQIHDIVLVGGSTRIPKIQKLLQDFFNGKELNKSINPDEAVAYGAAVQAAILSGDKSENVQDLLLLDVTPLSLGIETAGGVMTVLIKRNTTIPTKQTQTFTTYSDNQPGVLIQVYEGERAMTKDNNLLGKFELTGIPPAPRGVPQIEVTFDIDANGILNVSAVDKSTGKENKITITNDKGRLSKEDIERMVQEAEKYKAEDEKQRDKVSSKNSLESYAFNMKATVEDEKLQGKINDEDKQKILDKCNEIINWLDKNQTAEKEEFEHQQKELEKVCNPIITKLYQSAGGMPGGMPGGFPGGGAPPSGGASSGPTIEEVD

Legend:
[1] = molecular target: T1, Flag-PHGDH S371A (phospho-deficient mutant) (human) (UniProt O43175); experiment: co-IP; Flag-PHGDH WT or S371A immunoprecipitated from SK-Hep1 cells co-transfected with HA-HSC70; cells treated with 20 μM CQ and with or without 0.5 mM H2O2 for 12 h; LAMP2A and HA-HSC70 detected by immunoblotting
T1 sequence: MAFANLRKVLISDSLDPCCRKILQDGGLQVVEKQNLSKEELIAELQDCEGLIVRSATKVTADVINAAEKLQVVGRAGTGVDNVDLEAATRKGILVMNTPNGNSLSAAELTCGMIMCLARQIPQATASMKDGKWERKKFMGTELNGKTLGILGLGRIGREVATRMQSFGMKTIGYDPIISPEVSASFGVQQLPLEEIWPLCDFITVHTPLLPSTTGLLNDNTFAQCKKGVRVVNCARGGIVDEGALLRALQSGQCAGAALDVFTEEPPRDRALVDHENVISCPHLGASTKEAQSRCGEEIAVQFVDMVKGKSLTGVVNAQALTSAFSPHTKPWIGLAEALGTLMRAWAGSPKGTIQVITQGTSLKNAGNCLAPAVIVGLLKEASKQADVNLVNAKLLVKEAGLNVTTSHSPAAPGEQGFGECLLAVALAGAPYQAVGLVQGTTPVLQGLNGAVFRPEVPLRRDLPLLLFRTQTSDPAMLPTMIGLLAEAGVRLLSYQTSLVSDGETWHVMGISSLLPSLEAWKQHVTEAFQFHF

[2] = molecular target: T2, Flag-PHGDH WT (human phosphoglycerate dehydrogenase) (human) (UniProt O43175); experiment: as above
T2 sequence: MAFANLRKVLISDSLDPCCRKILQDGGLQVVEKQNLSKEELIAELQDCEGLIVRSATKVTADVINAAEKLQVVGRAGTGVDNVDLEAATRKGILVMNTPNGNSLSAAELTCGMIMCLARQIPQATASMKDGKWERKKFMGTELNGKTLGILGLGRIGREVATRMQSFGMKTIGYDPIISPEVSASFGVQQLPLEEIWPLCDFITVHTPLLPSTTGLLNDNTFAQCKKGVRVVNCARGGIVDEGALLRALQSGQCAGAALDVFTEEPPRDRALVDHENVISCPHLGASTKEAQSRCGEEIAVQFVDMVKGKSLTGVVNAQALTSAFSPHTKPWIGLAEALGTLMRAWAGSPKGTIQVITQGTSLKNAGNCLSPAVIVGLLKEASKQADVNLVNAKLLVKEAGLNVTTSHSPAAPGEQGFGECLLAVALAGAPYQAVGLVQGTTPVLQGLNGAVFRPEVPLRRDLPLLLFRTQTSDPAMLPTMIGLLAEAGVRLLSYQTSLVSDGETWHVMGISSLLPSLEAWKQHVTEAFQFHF

[3] = molecular target: T3, Flag-PHGDH S371D (phospho-mimic mutant) (human) (UniProt O43175); experiment: co-IP; Flag-PHGDH WT or S371D immunoprecipitated from transiently transfected SK-Hep1 cells 36 h after transfection; endogenous LAMP2A and HSC70 detected by immunoblotting
T3 sequence: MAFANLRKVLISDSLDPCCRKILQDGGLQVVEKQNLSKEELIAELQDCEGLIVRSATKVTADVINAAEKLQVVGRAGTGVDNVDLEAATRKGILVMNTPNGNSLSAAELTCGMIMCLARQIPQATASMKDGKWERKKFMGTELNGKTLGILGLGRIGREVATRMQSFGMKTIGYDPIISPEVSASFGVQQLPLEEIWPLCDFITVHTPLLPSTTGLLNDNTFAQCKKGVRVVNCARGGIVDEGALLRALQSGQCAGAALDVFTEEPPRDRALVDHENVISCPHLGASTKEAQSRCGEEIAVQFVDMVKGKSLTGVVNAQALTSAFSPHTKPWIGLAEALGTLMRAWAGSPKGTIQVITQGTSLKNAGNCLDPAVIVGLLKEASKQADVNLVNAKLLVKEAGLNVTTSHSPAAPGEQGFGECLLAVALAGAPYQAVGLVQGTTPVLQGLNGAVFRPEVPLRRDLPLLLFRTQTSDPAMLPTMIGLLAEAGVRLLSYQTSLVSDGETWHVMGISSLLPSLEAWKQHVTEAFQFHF

[4] = molecular target: T2, Flag-PHGDH WT (human phosphoglycerate dehydrogenase) (human); experiment: co-IP; Flag-PHGDH immunoprecipitated from SK-Hep1 cells co-transfected with EV or Flag-PHGDH and HA-MAPK13

binding [1]: no binding | binding [2]: binds
Molecule: HA-HSC70 (human heat shock cognate 71 kDa protein) (from UniProt P11142 1-646)

binding [3]: binds
Molecule: heat shock cognate 71 kDa protein (HSC70), endogenous (from UniProt P11142 1-646)

binding [4]: binds
B1: HA-MAPK13 (human mitogen-activated protein kinase 13) (enzyme, UniProt O15264 1-365)
chain: MSLIRKKGFYKQDVNKTAWELPKTYVSPTHVGSGAYGSVCSAIDKRSGEKVAIKKLSRPFQSEIFAKRAYRELLLLKHMQHENVIGLLDVFTPASSLRNFYDFYLVMPFMQTDLQKIMGMEFSEEKIQYLVYQMLKGLKYIHSAGVVHRDLKPGNLAVNEDCELKILDFGLARHADAEMTGYVVTRWYRAPEVILSWMHYNQTVDIWSVGCIMAEMLTGKTLFKGKDYLDQLTQILKVTGVPGTEFVQKLNDKAAKSYIQSLPQTPRKDFTQLFPRASPQAADLLEKMLELDVDKRLTAAQALTHPFFEPFRDPEEETEAQQPFDDSLEHEKLTVDEWKQHIYKEIVNFSPIARKDSRRRSGMKL
